The other results are listed elsewhere or left out. The main result of the screen is listed elsewhere. These columns were measured beside it and carry no call. The list favours compounds with an active or inconclusive main result. Words in brackets tell the shape of the fitted curve; partial curves, single points and poor fits give uncertain potencies.
Test: qHTS Assay for Lipid Storage Modulators in Drosophila S3 Cells;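 as to cell number change: cells counted by Cell Tracker Red CMTPX staining in the red channel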
Conditions: BODIPY lipid droplet fluorescence, 18-24 h; for cell number change: measured here: cell count max response, cells fed with added oleic acid
How it was run: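 Drosophila S3 cells loaded with oleic acid (400 uM, as added) and compounds at several concentrations; lipid droplets imaged by 488-nm laser-scanning cytometry, 500–530 nm intensity and object ratio to cell channel. Percent activity normalized to 20 uM Triacsin C.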

[1] = measured here: cell number channel AC50, cells fed with added oleic acid
[2] = measured here: lipid fluorescence (Fed channel) AC50, cells fed with added oleic acid

Row | SMILES | cell number change [%] | AC50 [1] | AC50 [2]
1 | CCCS(=O)(=O)N1CCC(C(=O)NCc2ccco2)CC1 | -36.4 | 7.31 µM [falling, partial curve] | 
2 | CCn1c(NC(=O)c2ccc(F)cc2)c2ccccc2nc1=O |  |  | 6.51 µM [falling, single point]
3 | O=C(CNC(=O)c1ccc(Cl)cc1Cl)OCn1nnc2ccccc2c1=O | 4 |  | 
4 | O=C(COc1ccc(Br)cc1CO)Nc1ccc(S(=O)(=O)N2CCCC2)cc1 | 21.7 |  | 
5 | CCC(Oc1ccccc1)C(=O)Nc1nnc(C(F)(F)F)s1 (stereo not given) | -20.7 | 6.51 µM [falling, single point] | 5.8 µM [falling, full curve]
6 | CCCCNC(=O)CCn1c(=O)c2ccccc2n(Cc2ccccc2C)c1=O | -1.11 |  | 1.3 µM [falling, single point]
7 | COc1cccc(CN2C(=O)Nc3ccccc3C(=O)N2C(C)(C)C)c1 | 31.2 | 9.2 µM [rising, partial curve, poor fit] | 
8 | CC(C)N1CCC(N2CCN(Cc3cc(F)ccc3-n3cccn3)CC2CCO)CC1 (stereo not given) | -1.31 |  | 
9 | COc1ccc2nc(SCC(=O)N3CCCCCC3)c(C#N)cc2c1 |  | 5.17 µM [rising, single point] | 1.16 µM [rising, partial curve, poor fit]
10 | CCN1CCN(c2ccc(S(=O)(=O)N3CCOCC3)cc2NC(=O)c2ccc(Cl)cc2Cl)CC1 |  |  | 29.1 µM [falling, single point]
11 | Cc1ccc(CN2CCN(CC(=O)NC(C)CCc3ccccc3)C2=O)cc1 (stereo not given) | -51.5 | 11.6 µM [falling, partial curve] | 13 µM [falling, partial curve]
12 | Cc1ccc(S(=O)(=O)CCC(=O)Nc2ccc3c(c2)OCO3)cc1 |  | 6.51 µM [rising, single point] | 
13 | Cc1ccc(S(=O)(=O)N2CCN(S(=O)(=O)N3CCC(C)CC3)CC2)cc1C | 2.94 |  | 0.206 µM [falling, single point]
14 | COC(=O)C1=NN(c2ccccc2)C2(S1)S/C(=C\c1ccccc1)C(=O)N2c1ccccc1 (stereo not given) | 40.1 | 10.3 µM [rising, partial curve, poor fit] | 
15 | COc1ccc(N=Nc2cnc(C)nc2-c2ccccc2)cc1 | -100 | 29.1 µM [falling, single point] | 
16 | CCCCOc1ccccc1N | -9.58 |  | 
17 | Cc1ccc(C(=O)NCCCNC(=O)c2ccccc2C)cn1 | 8.4 |  | 6.51 µM [falling, single point]
18 | NC(=O)c1ccsc1NC(=O)COC(=O)c1ccc(Cl)cc1 | 10.4 |  | 0.0146 µM [rising, full curve, poor fit]
19 | CC(C)Cc1nnc(NC(=O)Nc2ccccc2)s1 | -38.1 | 18.4 µM [falling, single point] | 18.4 µM [falling, single point]
20 | O=C(CCCN=C1NS(=O)(=O)c2ccccc21)OCc1cc([N+](=O)[O-])cc2c1OCOC2 | -14.6 |  | 
21 | CC(C)N(Cc1ccccc1)C(=O)COC(=O)C1CCN(c2ccc(C(F)(F)F)cn2)CC1 |  |  | 4.11 µM [falling, single point]

Reformatted in CSV form: 3 of the compounds above
Row,SMILES,cell number change [%],AC50 [1],AC50 [2]
3,O=C(CNC(=O)c1ccc(Cl)cc1Cl)OCn1nnc2ccccc2c1=O,4,,
8,CC(C)N1CCC(N2CCN(Cc3cc(F)ccc3-n3cccn3)CC2CCO)CC1 (stereo not given),-1.31,,
21,CC(C)N(Cc1ccccc1)C(=O)COC(=O)C1CCN(c2ccc(C(F)(F)F)cn2)CC1,,,"4.11 µM [falling, single point]"

(listing goes on)

Row | SMILES | cell number change [%] | AC50 [1] | AC50 [2]
22 | CC(C)CCn1c(-c2nonc2N)nc2ccccc21 | -43.2 | 11.6 µM [falling, partial curve] | 13 µM [falling, partial curve]
23 | CCOc1cc(C(=O)Nc2ccc(C(=O)NCCN(CC)CC)cc2)ccc1OCC(=O)N1CCOCC1 | -20.5 |  | 
24 | O=C(Cn1cnc2c(NC(=O)OCc3ccccc3)ncnc21)NCCN1CCOCC1 | 27.5 |  | 0.259 µM [rising, partial curve]
25 | Cc1cc(Nc2ccc(N(C)C)cc2)n2ncnc2n1 |  |  | 29.1 µM [rising, single point]
26 | CCCCn1c(N)c(N(CC)C(=O)c2ccc(C)cc2)c(=O)[nH]c1=O | 21.4 |  | 
27 | COC(=O)[C@]1(CC(C)C)N[C@H](c2ccc(-c3ccc(F)cc3)c(OC)c2)[C@@H]2C(=O)N(C)C(=O)[C@@H]21 | -40.3 | 29.1 µM [falling, single point] | 16.4 µM [falling, partial curve]
28 | O=C(COc1c(Br)cc(Br)c2cccnc12)N1CCc2ccccc2C1 | -7.64 | 2.91 µM [rising, single point] | 3.66 µM [rising, partial curve]
29 | CC(C)CC(=O)Nc1sc2c(c1C#N)CC(C)(C)NC2(C)C | 17.9 |  | 
30 | CC(=O)c1cccc(OCC(O)CN2CCN(C(=O)c3ccco3)CC2)c1 (stereo not given) | 15.2 |  | 6.51 µM [falling, single point]
31 | Cc1ccccc1C(=O)NNC(=S)NC(=O)c1ccc(Cl)cc1Cl | 35.1 | 3.66 µM [rising, full curve, poor fit] | 20.6 µM [rising, partial curve]
32 | CN(C)c1ccc(CNc2nc(-c3ccccc3)nn2S(C)(=O)=O)cc1 | -3.34 |  | 
33 | CC(=O)c1ccc(S(=O)(=O)NCCC(=O)OCC(=O)N(Cc2ccccc2)C(C)(C)C)cc1 | -3.24 |  | 25.9 µM [rising, partial curve, poor fit]
34 | CCOC(=O)c1ccc(Nc2nc(C(=O)OCC)nc3ccccc23)cc1 |  |  | 0.461 µM [falling, full curve, poor fit]
35 | Cc1ccc(/C=C2\CCn3c2nc2cc(C(=O)O)ccc2c3=O)c(C)c1 | 14.1 |  | 
36 | C=CCn1c(CCCNC(=O)c2ccccc2OC)nc2ccccc21 | -40.2 | 25.9 µM [falling, single point] | 16.4 µM [falling, partial curve, poor fit]
37 | CNC(=O)CN(c1ccc(C(C)C)cc1)S(C)(=O)=O | 30.5 | 4.61 µM [rising, full curve] | 0.164 µM [rising, full curve]
38 | Cc1ccc(C)c(CN2C(=O)c3ccccc3S(=O)(=O)c3ccc(C(=O)N4CCN(C)CC4)cc32)c1 | -26.5 |  | 
39 | CCN(CC(=O)Nc1ccc2c(c1)OCCO2)S(=O)(=O)c1ccc(F)cc1 | 10.9 |  | 
40 | CN(C)CCCN1C(=O)C2CCc3[nH]c4ccccc4c3C2C1=O (stereo not given) | 0.304 |  | 29.1 µM [rising, single point]
41 | COc1ccccc1Nc1nc2ccc(C)cc2n2cnnc12 | -12 | 0.82 µM [rising, full curve, poor fit] | 5.17 µM [falling, single point]
42 | COC(=O)CNC(c1ccccc1)c1cc(C)ccc1NC(=O)c1cccc(Cl)c1 (stereo not given) | 41.4 | 5.8 µM [rising, partial curve] | 0.82 µM [rising, full curve]

Row | SMILES | cell number change [%] | AC50 [1] | AC50 [2]
43 | CCCn1c(O)c(/C=C2\C=NN=C2c2ccccc2)sc1=S | -36.4 |  | 29.1 µM [falling, single point]
44 | CCCOc1ccccc1C1CC(=O)Nc2cc3c(cc21)OCCO3 (stereo not given) | -39.3 | 16.4 µM [falling, partial curve, poor fit] | 23.1 µM [falling, partial curve]
45 | O=[N+]([O-])c1ccccc1N/N=C\c1ccccc1F | -36.2 | 9.2 µM [falling, partial curve] | 7.31 µM [falling, partial curve]
46 | COc1cccc(OC)c1C(=O)Nc1nc2ccc([N+](=O)[O-])cc2s1 | 8.97 | 6.51 µM [falling, single point] | 6.51 µM [falling, single point]
47 | Cn1c(SCC#N)nc2ccccc2c1=O | 27.7 |  | 29.1 µM [rising, single point]
48 | Cc1cc(C)c2oc(C(=O)NCc3ccccc3)cc(=O)c2c1 | 21.7 |  | 13 µM [falling, partial curve]
49 | Cc1cc(OCC(=O)Nc2ccncc2)cc(C)c1Br | -52 | 16.4 µM [falling, partial curve] | 18.4 µM [falling, single point]
50 | C=CCNC(=O)CC1C(=O)NCCN1Cc1ccc(-c2ccccc2)cc1 (stereo not given) | -39 | 0.517 µM [falling, full curve] | 0.517 µM [falling, full curve]
51 | Cc1ccc(S(=O)(=O)N2CCOCC2)cc1C(=O)N(C)CCOc1ccc(Cl)cc1 | -10.4 |  | 
52 | COc1cccc(Nc2nnc(Cc3cccnc3)c3ccccc23)c1 | -13.4 |  | 29.1 µM [falling, single point]
53 | CC1Cc2ccccc2N1CC(=O)NCc1ccccc1Cl (stereo not given) | 9.94 |  | 16.4 µM [rising, single point]
54 | Cn1c(=O)c(-c2ccccc2N)nc2ccccc21 |  | 0.366 µM [rising, full curve] | 0.231 µM [rising, full curve, poor fit]
55 | Cc1ccc(S(=O)(=O)N2C=CC(C(F)(F)F)=NCC2)cc1 | 14.4 |  | 
56 | COC(=O)C(C)NC(=O)c1ccc(C(C)(C)C)cc1 (stereo not given) | -4.79 |  | 
57 | O=C(Nc1ccccc1)c1ccncc1 | -2.65 |  | 2.06 µM [falling, partial curve]
58 | CCOc1ccccc1NC(=O)CSc1nc(=O)n(Cc2ccccn2)c2c1CCC2 | 54.2 | 9.2 µM [rising, partial curve] | 
59 | Clc1ccc(C2=C3CCCCn4c(-c5ccccc5)c[n+](c43)C2)cc1 | -13.1 |  | 23.1 µM [falling, partial curve, poor fit]
60 | COc1cccc2c3c(c(C)nc12)CCN3c1ccccc1 | 9.85 |  | 
61 | Cc1ccc(NC(=O)CN(C)CC(=O)Nc2cccc(F)c2)cc1S(=O)(=O)N1CCCCCC1 |  | 0.092 µM [falling, single point] | 

Reference: PubChem BioAssay AID2685 (National Center for Advancing Translational Sciences (NCATS), 2010)
